Results are given in words; binding and its absence hold for the method and conditions named.
How the values were obtained:
[1] = molecular target: sγcC255A (mouse (precipitated and detected with α-mouse IL-2Rγ antibody)) (UniProt P34902); test: immunoprecipitation, non-reducing SDS-PAGE and immunoblot; culture supernatant of transfected HEK293T cells precipitated with α-mouse IL-2Rγ antibody and protein A/G agarose; resolved under non-reducing conditions (DTT-); blotted with biotinylated α-mouse IL-2Rγ antibody; dimer and monomer bands
[2] = molecular target: sγcΔ255-263 (mouse (precipitated and detected with α-mouse IL-2Rγ antibody)) (UniProt P34902); test: as above
[3] = molecular target: soluble common gamma chain (sγc), wild type (mouse (precipitated and detected with α-mouse IL-2Rγ antibody)) (UniProt P34902); test: immunoprecipitation, reducing SDS-PAGE and immunoblot; as a1, but the immunoprecipitates were reduced with DTT (DTT+; also in a dose series)
[4] = molecular target: soluble common gamma chain (sγc), wild type (mouse (precipitated and detected with α-mouse IL-2Rγ antibody)) (UniProt P34902); test: condition: only with 50 nM core-siAp8 (DNA aptamer) in the medium; immunoprecipitation, SDS-PAGE and immunoblot; HEK293T cells transfected with the sγc construct; 6 h after transfection the medium was changed for medium with full-siAp or core-siAp (DNA aptamers); monomeric and dimeric sγc in the supernatant detected by immunoprecipitation and immunoblot

B1: sγcC255A (protein, UniProt P34902 23-254)
chain: WSSKVLMSSANEDIKADLILTSTAPEHLSAPTLPLPEVQCFVFNIEYMNCTWNSSSEPQATNLTLHYRYKVSDNNTFQECSHYLFSKEITSGCQIQKEDIQLYQTFVVQLQDPQKPQRRAVQKLNLQNLVIPRAPENLTLSNLSESQLELRWKSRHIKERCLQYLVQYRSNRDRSWTELIVNHEPRFSLPSVDELKRYTFRVRSRYNPICGSSQQWSKWSQPVHWGSHTVEEALQFPPSRI
In the case of B1, the binding [1] is reported as “no binding”.

B2: sγcΔ255-263 (domain or fragment, UniProt P34902 23-254)
chain: WSSKVLMSSANEDIKADLILTSTAPEHLSAPTLPLPEVQCFVFNIEYMNCTWNSSSEPQATNLTLHYRYKVSDNNTFQECSHYLFSKEITSGCQIQKEDIQLYQTFVVQLQDPQKPQRRAVQKLNLQNLVIPRAPENLTLSNLSESQLELRWKSRHIKERCLQYLVQYRSNRDRSWTELIVNHEPRFSLPSVDELKRYTFRVRSRYNPICGSSQQWSKWSQPVHWGSHTVEE
For B2, the binding [2] was “no binding”.

B3: soluble common gamma chain (sγc), wild type (natural protein)
chain: WSSKVLMSSANEDIKADLILTSTAPEHLSAPTLPLPEVQCFVFNIEYMNCTWNSSSEPQATNLTLHYRYKVSDNNTFQECSHYLFSKEITSGCQIQKEDIQLYQTFVVQLQDPQKPQRRAVQKLNLQNLVIPRAPENLTLSNLSESQLELRWKSRHIKERCLQYLVQYRSNRDRSWTELIVNHEPRFSLPSVDELKRYTFRVRSRYNPICGSSQQWSKWSQPVHWGSHTVEECLQFPPSRI
notes: signal peptide in the construct; common gamma chain (γc, IL-2Rγ), the part before the new C-terminal 9 a.a. of the alternatively spliced soluble form; not part of the membrane form of γc; Secreted; found as a disulfide-linked dimer and as a monomer in the supernatant; The reverse primer has no stop codon, so a C-terminal tag from the vector may follow (surmise; also called WT sγc; soluble γc; …)
With B3 the binding [3] was “no binding (condition: reducing conditions (DTT+))” and the binding [4] was “no binding”.

Reference: paper PMC6375885, “Specific Inhibition of Soluble γc Receptor Attenuates Collagen-Induced Arthritis by Modulating the Inflammatory T Cell Responses” (Frontiers in Immunology, 2019)
